Results reported in US20180251495A1, “Skin-Penetrating Peptides and Compositions and Methods of Use Thereof” (The Regents of the University of California, priority 2015, published 2018).
At least one peptide structure holds a part that was inferred or is arguable (an end, a ring closure or a residue). Where a SMILES comes first, the peptide text is derived from it. Bridges are numbered along the chain shown (N, C = ends).

How the values were obtained:
[1] = SPP-aided skin penetration of CsA in Franz diffusion cells; format: in vitro ADME, porcine; details: CsA 5 mg/mL with SPP 25 mg/mL in 45% v/v Ethanol/PBS, 24 hours
human keratin = test: Keratin binding isotherm by batch affinity chromatography (Langmuir fit); details: SPP coupled to resin, human keratin 0.05 to 1 mg/mL in PBS pH 7.4, 2 hours; read-out: Experimental KD

Structure (SMILES)	CsA skin penetration / permeation enhancement [1]	CsA skin penetration / permeation enhancement ([1]; listed as low-binding heptamer)	Kd (human keratin) [µM]
C[C@H](N)C(=O)N[C@H]1CSSC[C@@H](C(=O)NCC(=O)O)NC(=O)CNC(=O)[C@H](CO)NC(=O)CNC(=O)[C@H](CO)NC(=O)CNC(=O)[C@H](CO)NC(=O)CNC1=O [ACGSGSGSGCG, reference compound] (H-ACGSGSGSGCG-OH; disulfide 2-10; N-terminus and C-terminus assumed)	no significant increase in CsA penetration	statistically significant less CsA penetration than SPACE™	–
C[C@H](N)C(=O)N[C@H]1CSSC[C@@H](C(=O)NCC(=O)O)NC(=O)[C@H](CCC(N)=O)NC(=O)[C@H](Cc2c[nH]cn2)NC(=O)[C@H](CCC(N)=O)NC(=O)[C@H]([C@@H](C)O)NC(=O)[C@H](CO)NC(=O)CNC(=O)[C@H]([C@@H](C)O)NC1=O [SPACE™, ACTGSTQHQCG, reference compound] (H-ACTGSTQHQCG-OH; disulfide 2-10; N-terminus and C-terminus assumed)	–	–	10.6
